# Experimental data as given in paper PMC6042961.
# Protein sequences, listed by entry. Tags and fused reporters are not part of them. Residues count along the entry.
# UniProt P31946: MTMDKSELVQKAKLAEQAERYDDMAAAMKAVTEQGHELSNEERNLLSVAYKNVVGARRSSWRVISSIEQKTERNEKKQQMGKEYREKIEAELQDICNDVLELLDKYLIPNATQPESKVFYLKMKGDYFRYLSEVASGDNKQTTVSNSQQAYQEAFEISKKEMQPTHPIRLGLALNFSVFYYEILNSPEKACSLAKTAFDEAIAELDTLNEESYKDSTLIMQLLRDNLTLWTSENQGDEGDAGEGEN
# UniProt P62258: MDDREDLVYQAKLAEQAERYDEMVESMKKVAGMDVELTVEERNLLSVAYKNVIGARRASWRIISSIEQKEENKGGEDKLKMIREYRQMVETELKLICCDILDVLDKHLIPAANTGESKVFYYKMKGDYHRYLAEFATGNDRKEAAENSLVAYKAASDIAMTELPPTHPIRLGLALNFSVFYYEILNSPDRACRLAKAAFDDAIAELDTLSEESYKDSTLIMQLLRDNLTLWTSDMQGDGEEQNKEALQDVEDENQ
# UniProt P31947: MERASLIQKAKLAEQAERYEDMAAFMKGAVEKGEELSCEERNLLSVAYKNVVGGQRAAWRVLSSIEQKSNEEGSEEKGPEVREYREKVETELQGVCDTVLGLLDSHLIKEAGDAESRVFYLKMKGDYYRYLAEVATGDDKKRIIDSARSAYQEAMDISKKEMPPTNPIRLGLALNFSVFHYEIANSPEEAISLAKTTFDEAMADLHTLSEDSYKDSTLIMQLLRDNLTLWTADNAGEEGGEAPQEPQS
# UniProt P63104: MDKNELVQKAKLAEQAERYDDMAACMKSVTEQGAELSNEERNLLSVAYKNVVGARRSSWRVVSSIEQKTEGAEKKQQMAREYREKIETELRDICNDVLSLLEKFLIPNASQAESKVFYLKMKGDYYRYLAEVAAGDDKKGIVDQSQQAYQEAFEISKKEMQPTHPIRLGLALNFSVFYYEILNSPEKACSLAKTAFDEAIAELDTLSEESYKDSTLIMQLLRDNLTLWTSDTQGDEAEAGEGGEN
# UniProt O00629: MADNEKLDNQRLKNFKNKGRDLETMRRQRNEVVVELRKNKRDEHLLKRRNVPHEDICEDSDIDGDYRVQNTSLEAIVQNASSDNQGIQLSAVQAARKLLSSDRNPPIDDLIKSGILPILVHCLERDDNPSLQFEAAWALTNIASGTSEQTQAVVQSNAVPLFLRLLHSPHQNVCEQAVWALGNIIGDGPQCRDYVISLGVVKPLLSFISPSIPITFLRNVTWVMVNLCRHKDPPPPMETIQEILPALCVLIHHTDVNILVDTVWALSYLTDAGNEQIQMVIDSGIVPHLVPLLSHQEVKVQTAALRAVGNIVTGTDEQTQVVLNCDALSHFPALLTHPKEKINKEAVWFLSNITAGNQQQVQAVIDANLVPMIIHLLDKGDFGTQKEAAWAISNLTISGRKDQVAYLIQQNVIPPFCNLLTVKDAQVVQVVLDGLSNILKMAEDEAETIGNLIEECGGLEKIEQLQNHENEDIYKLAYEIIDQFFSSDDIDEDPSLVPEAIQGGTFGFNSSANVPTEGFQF
# UniProt Q9BXB1, residues 25-951: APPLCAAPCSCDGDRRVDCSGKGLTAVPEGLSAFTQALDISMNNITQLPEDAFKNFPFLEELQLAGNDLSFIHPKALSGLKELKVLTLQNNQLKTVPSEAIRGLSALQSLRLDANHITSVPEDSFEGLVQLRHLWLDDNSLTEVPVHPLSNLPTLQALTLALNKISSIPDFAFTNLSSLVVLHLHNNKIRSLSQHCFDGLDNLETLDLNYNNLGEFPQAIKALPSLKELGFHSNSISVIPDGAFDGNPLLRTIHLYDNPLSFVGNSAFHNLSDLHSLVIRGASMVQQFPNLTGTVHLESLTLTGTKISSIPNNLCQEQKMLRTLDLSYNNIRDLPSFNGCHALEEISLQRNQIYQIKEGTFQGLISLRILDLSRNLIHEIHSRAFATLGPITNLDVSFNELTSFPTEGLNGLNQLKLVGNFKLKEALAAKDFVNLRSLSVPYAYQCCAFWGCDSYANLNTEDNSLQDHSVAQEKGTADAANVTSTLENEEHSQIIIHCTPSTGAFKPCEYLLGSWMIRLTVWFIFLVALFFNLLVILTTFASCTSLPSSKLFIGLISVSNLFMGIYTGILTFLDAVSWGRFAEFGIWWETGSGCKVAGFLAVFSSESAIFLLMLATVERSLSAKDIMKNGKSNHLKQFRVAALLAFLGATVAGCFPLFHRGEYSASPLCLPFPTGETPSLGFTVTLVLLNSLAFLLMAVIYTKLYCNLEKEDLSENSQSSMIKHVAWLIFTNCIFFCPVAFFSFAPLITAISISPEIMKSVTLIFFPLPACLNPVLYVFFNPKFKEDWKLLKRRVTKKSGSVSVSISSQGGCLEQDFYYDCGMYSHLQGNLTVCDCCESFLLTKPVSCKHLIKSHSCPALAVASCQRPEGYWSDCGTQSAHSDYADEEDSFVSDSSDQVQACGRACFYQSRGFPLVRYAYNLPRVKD
# UniProt P28482: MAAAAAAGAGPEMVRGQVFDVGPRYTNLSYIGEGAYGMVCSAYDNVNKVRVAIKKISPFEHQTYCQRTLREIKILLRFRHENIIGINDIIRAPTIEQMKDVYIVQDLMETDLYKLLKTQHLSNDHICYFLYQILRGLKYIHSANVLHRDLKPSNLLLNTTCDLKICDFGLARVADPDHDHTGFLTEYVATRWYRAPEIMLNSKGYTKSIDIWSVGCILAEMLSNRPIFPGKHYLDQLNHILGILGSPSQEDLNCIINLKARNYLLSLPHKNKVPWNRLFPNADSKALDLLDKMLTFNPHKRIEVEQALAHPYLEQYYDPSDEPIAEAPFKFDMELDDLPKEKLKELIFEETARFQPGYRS
# UniProt P27361: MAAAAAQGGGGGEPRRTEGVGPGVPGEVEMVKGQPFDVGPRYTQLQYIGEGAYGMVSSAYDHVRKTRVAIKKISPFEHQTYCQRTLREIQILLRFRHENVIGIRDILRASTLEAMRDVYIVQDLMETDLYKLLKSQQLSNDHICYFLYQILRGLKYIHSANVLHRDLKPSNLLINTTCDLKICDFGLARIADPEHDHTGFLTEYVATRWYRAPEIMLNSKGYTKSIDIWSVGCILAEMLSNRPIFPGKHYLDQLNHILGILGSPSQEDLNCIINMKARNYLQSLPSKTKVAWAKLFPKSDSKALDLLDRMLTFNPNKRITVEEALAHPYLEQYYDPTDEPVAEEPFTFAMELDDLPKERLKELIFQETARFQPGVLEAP
# UniProt P11940: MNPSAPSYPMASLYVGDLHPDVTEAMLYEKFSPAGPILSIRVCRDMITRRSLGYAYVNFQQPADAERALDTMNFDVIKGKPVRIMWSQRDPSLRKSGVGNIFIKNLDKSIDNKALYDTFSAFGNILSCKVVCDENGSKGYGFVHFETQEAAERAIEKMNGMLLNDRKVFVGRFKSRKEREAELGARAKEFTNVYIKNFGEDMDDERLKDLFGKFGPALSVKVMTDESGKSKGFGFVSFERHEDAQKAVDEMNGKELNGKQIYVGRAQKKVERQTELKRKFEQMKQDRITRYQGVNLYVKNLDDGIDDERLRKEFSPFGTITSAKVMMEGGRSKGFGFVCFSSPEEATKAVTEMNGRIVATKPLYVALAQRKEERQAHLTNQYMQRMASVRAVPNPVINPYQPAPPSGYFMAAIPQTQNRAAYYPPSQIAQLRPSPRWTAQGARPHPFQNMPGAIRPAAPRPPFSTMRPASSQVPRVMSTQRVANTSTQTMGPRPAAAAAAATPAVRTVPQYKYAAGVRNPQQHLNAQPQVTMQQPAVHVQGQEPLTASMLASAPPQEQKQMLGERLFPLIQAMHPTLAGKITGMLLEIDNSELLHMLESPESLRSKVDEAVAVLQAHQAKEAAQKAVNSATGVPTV
# UniProt Q5SWA1: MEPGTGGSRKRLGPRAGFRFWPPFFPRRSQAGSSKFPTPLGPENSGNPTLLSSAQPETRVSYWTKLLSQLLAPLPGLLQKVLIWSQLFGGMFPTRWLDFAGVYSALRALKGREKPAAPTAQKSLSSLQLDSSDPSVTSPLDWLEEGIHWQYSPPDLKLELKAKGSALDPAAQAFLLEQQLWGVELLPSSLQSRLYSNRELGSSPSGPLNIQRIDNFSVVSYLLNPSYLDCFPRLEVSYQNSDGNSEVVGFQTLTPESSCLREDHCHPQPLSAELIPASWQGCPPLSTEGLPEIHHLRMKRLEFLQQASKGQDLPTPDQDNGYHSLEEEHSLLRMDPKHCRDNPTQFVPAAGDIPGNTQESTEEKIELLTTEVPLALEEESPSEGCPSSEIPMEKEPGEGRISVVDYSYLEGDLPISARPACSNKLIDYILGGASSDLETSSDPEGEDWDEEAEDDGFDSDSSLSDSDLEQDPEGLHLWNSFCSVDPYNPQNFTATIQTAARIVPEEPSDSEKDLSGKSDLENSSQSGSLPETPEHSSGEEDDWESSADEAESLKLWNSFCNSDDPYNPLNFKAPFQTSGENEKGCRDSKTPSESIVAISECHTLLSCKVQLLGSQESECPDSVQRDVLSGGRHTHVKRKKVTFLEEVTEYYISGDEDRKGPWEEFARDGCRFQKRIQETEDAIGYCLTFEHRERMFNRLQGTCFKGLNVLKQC
# UniProt P51812: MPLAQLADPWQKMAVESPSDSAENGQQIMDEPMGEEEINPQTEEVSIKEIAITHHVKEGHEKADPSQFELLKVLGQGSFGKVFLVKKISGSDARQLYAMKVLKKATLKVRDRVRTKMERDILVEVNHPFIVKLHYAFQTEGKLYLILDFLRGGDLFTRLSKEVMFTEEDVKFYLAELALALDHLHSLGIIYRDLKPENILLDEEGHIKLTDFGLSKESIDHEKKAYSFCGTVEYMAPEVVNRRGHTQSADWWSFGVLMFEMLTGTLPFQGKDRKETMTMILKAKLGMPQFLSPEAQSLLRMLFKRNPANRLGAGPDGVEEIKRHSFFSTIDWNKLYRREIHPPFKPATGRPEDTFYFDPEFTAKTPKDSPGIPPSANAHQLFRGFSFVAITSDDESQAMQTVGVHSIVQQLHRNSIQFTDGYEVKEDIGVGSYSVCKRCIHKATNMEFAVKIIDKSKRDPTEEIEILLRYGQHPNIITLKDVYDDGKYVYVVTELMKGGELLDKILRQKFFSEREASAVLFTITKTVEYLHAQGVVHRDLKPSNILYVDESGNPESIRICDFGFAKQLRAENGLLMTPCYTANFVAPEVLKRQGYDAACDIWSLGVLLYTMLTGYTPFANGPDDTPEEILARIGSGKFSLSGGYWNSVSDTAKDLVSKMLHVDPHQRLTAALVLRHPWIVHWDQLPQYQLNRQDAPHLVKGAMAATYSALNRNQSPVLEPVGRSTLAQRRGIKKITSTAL
# These are yes or no findings as the source states them, for the method shown. In cells and extracts the contact can be indirect. These calls come from enrichment with a bait or labelling near it, and not all partners need be listed.
# T1: human iRhom2-3xHA (human) (UniProt Q6PJF5)
# T1 sequence: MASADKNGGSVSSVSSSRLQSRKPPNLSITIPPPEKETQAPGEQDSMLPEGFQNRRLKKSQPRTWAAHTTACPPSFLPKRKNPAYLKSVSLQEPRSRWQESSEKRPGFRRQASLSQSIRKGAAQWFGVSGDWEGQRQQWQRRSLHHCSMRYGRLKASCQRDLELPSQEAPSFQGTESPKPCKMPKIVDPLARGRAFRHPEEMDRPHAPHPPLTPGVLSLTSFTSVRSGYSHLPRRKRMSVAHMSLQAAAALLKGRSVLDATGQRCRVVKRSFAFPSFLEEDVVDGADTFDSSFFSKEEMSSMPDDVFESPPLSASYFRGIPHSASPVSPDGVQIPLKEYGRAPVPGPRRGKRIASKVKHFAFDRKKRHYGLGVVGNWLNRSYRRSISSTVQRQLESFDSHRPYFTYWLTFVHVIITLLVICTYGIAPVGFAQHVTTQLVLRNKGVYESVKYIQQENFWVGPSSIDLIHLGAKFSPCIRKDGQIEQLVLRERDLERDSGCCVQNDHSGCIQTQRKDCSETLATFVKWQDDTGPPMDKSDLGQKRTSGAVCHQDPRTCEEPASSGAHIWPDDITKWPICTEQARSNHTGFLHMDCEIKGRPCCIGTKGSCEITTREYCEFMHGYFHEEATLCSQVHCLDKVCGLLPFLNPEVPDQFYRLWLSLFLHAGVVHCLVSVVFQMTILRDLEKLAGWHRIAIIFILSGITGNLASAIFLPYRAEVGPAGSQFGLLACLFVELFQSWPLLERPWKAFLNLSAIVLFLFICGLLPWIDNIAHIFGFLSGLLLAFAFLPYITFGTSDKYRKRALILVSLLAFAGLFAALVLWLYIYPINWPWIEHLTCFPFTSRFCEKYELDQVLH
# B1: endogenous FRMD8 (protein, UniProt Q9BZ67 1-464)
# chain: MDGTEGSAGQPGPAERSHRSSVSSVGARAADVLVYLADDTVVPLAVENLPSLSAHELHRAVREVLQLPDIALDVFALWLVSPLLEVQLKPKHQPYKLGRQWPELLLRFTSAPDDDVAMDEPFLQFRRNVFFPKRRELQIHDEEVLRLLYEEAKGNVLAARYPCDVEDCEALGALVCRVQLGPYQPGRPAACDLREKLDSFLPAHLCKRGQSLFAALRGRGARAGPGEQGLLNAYRQVQEVSSDGGCEAALGTHYRAYLLKCHELPFYGCAFFHGEVDKPAQGFLHRGGRKPVSVAISLEGVHVIDSREKHVLLGLRFQELSWDHTSPEEEEPILWLEFDGDSEGTPVNKLLKIYSKQAELMSSLIEYCIELSQAAEPAGPQDSATGSPSDPSSSLAPVQRPKLRRQGSVVSSRIQHLSTIDYVEDGKGIRRVKPKRTTSFFSRQLSLGQGSYTVVQPGDSLEQG
# B2: Nuclear pore complex protein Nup50 (protein, UniProt Q9UKX7 1-468)
# chain: MAKRNAEKELTDRNWDQEDEAEEVGTFSMASEEVLKNRAIKKAKRRNVGFESDTGGAFKGFKGLVVPSGGGRFSGFGSGAGGKPLEGLSNGNNITSAPPFASAKAAADPKVAFGSLAANGPTTLVDKVSNPKTNGDSQQPSSSGLASSKACVGNAYHKQLAALNCSVRDWIVKHVNTNPLCDLTPIFKDYEKYLANIEQQHGNSGRNSESESNKVAAETQSPSLFGSTKLQQESTFLFHGNKTEDTPDKKMEVASEKKTDPSSLGATSASFNFGKKVDSSVLGSLSSVPLTGFSFSPGNSSLFGKDTTQSKPVSSPFPTKPLEGQAEGDSGECKGGDEEENDEPPKVVVTEVKEEDAFYSKKCKLFYKKDNEFKEKGIGTLHLKPTANQKTQLLVRADTNLGNILLNVLIPPNMPCTRTGKNNVLIVCVPNPPIDEKNATMPVTMLIRVKTSEDADELHKILLEKKDA
# B3: Semaphorin-4F (protein, UniProt O95754 35-770)
# chain: RVPRSVPRTSLPISEADSCLTRFAVPHTYNYSVLLVDPASHTLYVGARDTIFALSLPFSGERPRRIDWMVPEAHRQNCRKKGKKEDECHNFVQILAIANASHLLTCGTFAFDPKCGVIDVSRFQQVERLESGRGKCPFEPAQRSAAVMAGGVLYAATVKNYLGTEPIITRAVGRAEDWIRTDTLPSWLNAPAFVAAVALSPAEWGDEDGDDEIYFFFTETSRAFDSYERIKVPRVARVCAGDLGGRKTLQQRWTTFLKADLLCPGPEHGRASSVLQDVAVLRPELGAGTPIFYGIFSSQWEGATISAVCAFRPQDIRTVLNGPFRELKHDCNRGLPVVDNDVPQPRPGECITNNMKLRHFGSSLSLPDRVLTFIRDHPLMDRPVFPADGHPLLVTTDTAYLRVVAHRVTSLSGKEYDVLYLGTEDGHLHRAVRIGAQLSVLEDLALFPEPQPVENMKLYHSWLLVGSRTEVTQVNTTNCGRLQSCSECILAQDPVCAWSFRLDECVAHAGEHRGLVQDIESADVSSLCPKEPGERPVVFEVPVATAAHVVLPCSPSSAWASCVWHQPSGVTALTPRRDGLEVVVTPGAMGAYACECQEGGAAHVVAAYSLVWGSQRDAPSRAHTVGAGLAGFFLGILAASLTLILIGRRQQRRRQRELLARDKVGLDLGAPPSGTTSYSQDPPSPSPEDERLPLALAKRGSGFGGFSPPFLLDPCPSPAHIRLTGAPLATCDETSI
# B4: KIF1-binding protein (protein, UniProt Q96EK5 1-621)
# chain: MANVPWAEVCEKFQAALALSRVELHKNPEKEPYKSKYSARALLEEVKALLGPAPEDEDERPEAEDGPGAGDHALGLPAEVVEPEGPVAQRAVRLAVIEFHLGVNHIDTEELSAGEEHLVKCLRLLRRYRLSHDCISLCIQAQNNLGILWSEREEIETAQAYLESSEALYNQYMKEVGSPPLDPTERFLPEEEKLTEQERSKRFEKVYTHNLYYLAQVYQHLEMFEKAAHYCHSTLKRQLEHNAYHPIEWAINAATLSQFYINKLCFMEARHCLSAANVIFGQTGKISATEDTPEAEGEVPELYHQRKGEIARCWIKYCLTLMQNAQLSMQDNIGELDLDKQSELRALRKKELDEEESIRKKAVQFGTGELCDAISAVEEKVSYLRPLDFEEARELFLLGQHYVFEAKEFFQIDGYVTDHIEVVQDHSALFKVLAFFETDMERRCKMHKRRIAMLEPLTVDLNPQYYLLVNRQIQFEIAHAYYDMMDLKVAIADRLRDPDSHIVKKINNLNKSALKYYQLFLDSLRDPNKVFPEHIGEDVLRPAMLAKFRVARLYGKIITADPKKELENLATSLEHYKFIVDYCEKHPEAAQEIEVELELSKEMVSLLPTKMERFRTKMALT
# B5: Ras-related protein Rap-2b (protein, UniProt P61225 1-183)
# chain: MREYKVVVLGSGGVGKSALTVQFVTGSFIEKYDPTIEDFYRKEIEVDSSPSVLEILDTAGTEQFASMRDLYIKNGQGFILVYSLVNQQSFQDIKPMRDQIIRVKRYERVPMILVGNKVDLEGEREVSYGEGKALAEEWSCPFMETSAKNKASVDELFAEIVRQMNYAAQPNGDEGCCSACVIL
# B6: 14-3-3 protein theta (protein, UniProt P27348 1-245)
# chain: MEKTELIQKAKLAEQAERYDDMATCMKAVTEQGAELSNEERNLLSVAYKNVVGGRRSAWRVISSIEQKTDTSDKKLQLIKDYREKVESELRSICTTVLELLDKYLIANATNPESKVFYLKMKGDYFRYLAEVACGDDRKQTIDNSQGAYQEAFDISKKEMQPTHPIRLGLALNFSVFYYEILNNPELACTLAKTAFDEAIAELDTLNEDSYKDSTLIMQLLRDNLTLWTSDSAGEECDAAEGAEN
# B7: 14-3-3 protein eta (protein, UniProt Q04917 1-246)
# chain: MGDREQLLQRARLAEQAERYDDMASAMKAVTELNEPLSNEDRNLLSVAYKNVVGARRSSWRVISSIEQKTMADGNEKKLEKVKAYREKIEKELETVCNDVLSLLDKFLIKNCNDFQYESKVFYLKMKGDYYRYLAEVASGEKKNSVVEASEAAYKEAFEISKEQMQPTHPIRLGLALNFSVFYYEIQNAPEQACLLAKQAFDDAIAELDTLNEDSYKDSTLIMQLLRDNLTLWTSDQQDEEAGEGN
# B8: 14-3-3 protein gamma (protein, UniProt P61981 1-247)
# chain: MVDREQLVQKARLAEQAERYDDMAAAMKNVTELNEPLSNEERNLLSVAYKNVVGARRSSWRVISSIEQKTSADGNEKKIEMVRAYREKIEKELEAVCQDVLSLLDNYLIKNCSETQYESKVFYLKMKGDYYRYLAEVATGEKRATVVESSEKAYSEAHEISKEHMQPTHPIRLGLALNYSVFYYEIQNAPEQACHLAKTAFDDAIAELDTLNEDSYKDSTLIMQLLRDNLTLWTSDQQDDDGGEGNN
# B9: Signal peptidase subunit SEC11C (protein, UniProt Q9BY50 1-192)
# chain: MVRAGAVGAHLPASGLDIFGDLKKMNKRQLYYQVLNFAMIVSSALMIWKGLIVLTGSESPIVVVLSGSMEPAFHRGDLLFLTNFREDPIRAGEIVVFKVEGRDIPIVHRVIKVHEKDNGDIKFLTKGDNNEVDDRGLYKEGQNWLEKKDVVGRARGFLPYVGMVTIIMNDYPKFKYALLAVMGAYVLLKRES
# B10: Protein lin-7 homolog C (protein, UniProt Q9NUP9 1-197)
# chain: MAALGEPVRLERDICRAIELLEKLQRSGEVPPQKLQALQRVLQSEFCNAVREVYEHVYETVDISSSPEVRANATAKATVAAFAASEGHSHPRVVELPKTEEGLGFNIMGGKEQNSPIYISRIIPGGIADRHGGLKRGDQLLSVNGVSVEGEHHEKAVELLKAAQGKVKLVVRYTPKVLEEMESRFEKMRSAKRRQQT
# B11: Tumor suppressor candidate 3 (protein, UniProt Q13454 42-348)
# chain: QKKKENLLAEKVEQLMEWSSRRSIFRMNGDKFRKFIKAPPRNYSMIVMFTALQPQRQCSVCRQANEEYQILANSWRYSSAFCNKLFFSMVDYDEGTDVFQQLNMNSAPTFMHFPPKGRPKRADTFDLQRIGFAAEQLAKWIADRTDVHIRVFRPPNYSGTIALALLVSLVGGLLYLRRNNLEFIYNKTGWAMVSLCIVFAMTSGQMWNHIRGPPYAHKNPHNGQVSYIHGSSQAQFVAESHIILVLNAAITMGMVLLNEAATSKGDVGKRRIICLVGLGLVVFFFSFLLSIFRSKYHGYPYSDLDFE
# Biological target: T1, human iRhom2-3xHA (human)
# Test: affinity purification with mass spectrometry; anti-HA immunoprecipitation from HEK293T cells stably expressing human iRhom2-3xHA; bead eluates analysed by label-free mass spectrometry; UNC93B1-3xHA as negative control; three biological replicates
row,Molecule,binding
1,14-3-3 protein alpha/beta (from UniProt P31946 1-246),binds
2,14-3-3 protein epsilon (from UniProt P62258 1-255),binds
3,14-3-3 protein sigma (from UniProt P31947 1-248),binds
4,14-3-3 protein zeta/delta (from UniProt P63104 1-245),binds
5,Importin subunit alpha-3 (from UniProt O00629 1-521),binds
6,Leucine-rich repeat-containing GPCR 4 (from UniProt Q9BXB1 25-951) (receptor),binds
7,Mitogen-activated protein kinase 1 (from UniProt P28482 1-360) (enzyme),binds
8,Mitogen-activated protein kinase 3 (from UniProt P27361 1-379) (enzyme),binds
9,Polyadenylate-binding protein 1; Polyadenylate-binding protein 3 (from UniProt P11940 1-636),binds
10,Protein phosphatase 1 subunit 15B (from UniProt Q5SWA1 1-713),binds
11,Ribosomal protein S6 kinase alpha-3 (from UniProt P51812 1-740) (enzyme),binds

# Biological target: T1, human iRhom2-3xHA (human)
# Test: as above
# Remark: another data set of the same source
row,Molecule,binding
1,B1,binds
2,B2,binds
3,B3,binds
4,B4,binds
5,B5,binds
6,B6,binds
7,B7,binds
8,B8,binds
9,B9,binds
10,B10,binds
11,B11,binds
